# Data published in PubChem BioAssay AID1508600 (Functional Genomics Laboratory (NCATS/FGL), 2020).
# The whole screen tested about 53,000 sequences, of which about 3,700 (7%) were called active.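 The calls were made as follows: active = gene knockdowns whose robust z-score for IL-1 alpha signal is at least 2 or at most -2, so actives lie on both sides; inactive = the rest.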 This is one part of the list.
# Experiment: Components of the Cytosolic LPS Sensing Pathway: Gene Identification via Genome-wide siRNA Screen;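 also: robust z of the log signal after scaling to non-targeting control siRNA wells of the plate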
# Settings: RAW264.7 macrophages, IL-1a HTRF, actives lie on both sides, screened at 100 nM (by protocol), cells primed 5 h with Pam3CSK4 first
# Summary of the method: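 Using IL-1a HTRF as read-out, the screen measured release from RAW264.7 cells after 48h siRNA knockdown (100 nM), 5 h Pam3CSK4 priming and 24 h cytosolic LipidA. Values were expressed relative to negative-control wells as robust z-scores.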
row,Sequence,z-score
1,GGGAUUCUCAGGUCACUGUTT against Nectin4,inactive: 0.14
2,GCCUAGAACUGAUGGAGCUTT against Trp73,inactive: 1.21
3,GGAUCCUUACUACAGAUUUTT against Manba,inactive: 0.839
4,AGUAACCUGAGACAACACCTT against Zbtb25,inactive: 0.231
5,CCCGAUUGAUAUUCCAAACTT against Piwil1,inactive: 0.822
6,GGAGUUUUUACAGUGCUUUTT against Brinp3,inactive: 0.565
7,GGUGAUUGUUAGAGUUAAATT against Syt4,inactive: 0.934
8,GGUCAAGAUGCAGAAAGGUTT against Odf2,inactive: -1.4
9,GGAACAACUGUAAGUCCACTT against Kng2,inactive: -0.192
10,GGAAAUCACAAACUUGUGGTT against Tspan12,inactive: 1.25
11,GCUUUGUCUCAAAGAAAAATT against Olfr145,inactive: 1.24
12,CCUUAAAACUGAUUACACCTT against Bach2,inactive: 0.481
13,CCAUUGUUUGGACUGUUCCTT against Olfr1066,inactive: -0.169
14,GAUUCCAAGACAUUAAACATT against Fxn,inactive: 0.485
15,GCAUCAAACAAUUUGUCGUTT against Ptgis,inactive: 0.0275
16,CCUCACCAGGUAAAUUUUUTT against Ro60,inactive: -1.25
17,GGACAAACAGGGAGAAAGATT against Mogat2,inactive: -0.091
18,GACUUCAUGGUCAAACUUATT against Rpl4,inactive: 0.621
19,GCAUGCUGACCACAAUAGATT against Arhgef11,inactive: 0.768
20,GGAGAAGGAACUGUGUGAGTT against Nfkbil1,active: -2.26
21,GCAGCCUACUAACCGGAUUTT against Cited4,inactive: 0.119
22,GACAUUGUCUGAUUUUGGATT against Vmn1r81,inactive: -1.22
23,GGAGAUCUUCAAUAUGUUATT against Supt6,active: -2.25
24,GGAAAACAAGUGCAGCAUGTT against Pgap1,inactive: -0.0346
25,GGGAAAUGAGUUUCUACCGTT against Ebna1bp2,inactive: -0.891
26,GGGAUUUUUUAUUAAGCCCTT against Foxg1,inactive: -0.258
27,CCACCACAAGUACCGUAAATT against Aurkaip1,inactive: -0.818
28,GAGUGUGAAGAUAGACUUCTT against Myl4,inactive: 0.0215
29,GCAGCUAUUGAGCAUGGUGTT against Atp6v1g3,active: -2.16

# Retrieved one by one from above (2):
row,Sequence,z-score
19,GCAUGCUGACCACAAUAGATT against Arhgef11,inactive: 0.768
2,GCCUAGAACUGAUGGAGCUTT against Trp73,inactive: 1.21
